The target in the test is HER2 S310F-Fc (homodimeric) (human). Nature of the test: yeast surface display of the scFv, titration with soluble HER2 S310F (23-652)-Fc, 0-200 nM, flow cytometry (MFI); clone 5 is CH15V. (In general: In flow cytometry, cells or beads pass a laser one at a time.)

These are yes or no findings as the source states them, for the method shown. Some entries that bind do so weakly or less than the wild type.

B1: CH15V scFv displayed on yeast (scFv, V domains shown)
VH: EVQLVESGGGLVQPGGSLRLSCAASGFTFSGNYIHWVRQAPGKGLEWVASIYSAGGYTDYADSVKGRFTISADTSKNTAYLQMNSLRAEDTAVYYCARYGVYTMHQYGSWEQMPAFDYWGQGTLVTVSS
VL: DIQMTQSPSSLSASVGDRVTITCRASQSVSSAVAWYQQKPGKAPKLLIYSASSLYSGVPSRFSGSRSGTDFTLTISSLQPEDFATYYCQQSSSSLITFGQGTKVEIKR
On to B1, for which the binding result is reported as “binds”.

The record behind these values is US20260234287A1.
